Assay results published in the supplement of paper PMC8497498.
The list shows a part of the results. The data scatter; read single values as rough.

Key:
Settings in all cases: 10 µM
[1] = tested on: Plasmodium vivax liver stage (primary human hepatocyte culture); experiment: hypnozoite quantity inhibition (% inhibition); higher = more active against hypnozoites
[2] = tested on: Plasmodium vivax liver stage (primary human hepatocyte culture); experiment: schizont net growth area inhibition (% inhibition); higher = more active against liver schizonts
[3] = tested on: primary human hepatocytes; experiment: hepatic nuclei reduction relative to DMSO (100 - % of negative control); higher = more toxic to hepatocytes
[4] = assay mode: Prophylactic (treated before or shortly after infection), fixed day 6 post-infection
[5] = assay mode: Radical Cure (treated from day 5 post-infection for 3 days), fixed day 8 post-infection

| Structure (SMILES) | hypnozoite quantity inhibition [1, 4] | hypnozoite quantity inhibition [1, 5] | schizont net growth area inhibition [2, 4] | schizont net growth area inhibition [2, 5] | hepatic nuclei reduction [3, 4] [%] | hepatic nuclei reduction [3, 5] [%] |
| --- | --- | --- | --- | --- | --- | --- |
| Cc1nn(C)c(NC(=O)Cn2c(C(C)C)nc3ccccc32)c1-c1ccc(Cl)cc1F | 4 | 15 | 24.9 | 45.4 | -4 | -3 |
| CCOc1cc(Cl)c(C(C)NC(=O)c2cccc(OC)c2)cc1OCC (stereo not drawn) | -1.3 | 34.6 | 48.7 | 40.8 | -1 | -6 |
| Cc1nc(-c2ccccn2)nc(N(C)CCc2ccccc2)c1Cl | 6 | 14 | -11.2 | -29.7 | -7 | 2 |
